This list was built around the results that the source calls inconclusive (neither active nor inactive); the mix of calls is not that of the screen. Potencies beside an inconclusive call are fits to weak or partial responses and may not hold up. Calls of active or inactive are those of the source. How the source made its calls: active means hit-call score of the fitted dose curve at least 0.9, where 1 is the maximum; inconclusive means response in the unintended direction; inactive means score below 0.9.
Assay: Tanguay_ZF_120hpf_PIG_legacy: (Legacy) Oregon State University Tanguay Lab 120 Hour Post-fertilization zebrafish Assay for Pigmentation Malformation (AID 2283650)
In short: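 Endpoint is incidence of abnormal pigmentation at 120 hpf in dechorionated 5D zebrafish exposed singly from 6 hpf at 28C, DMSO vehicle at 0.64%. Embryos dying by 24 or 120 hpf are excluded from scoring.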

Row | SMILES | AC50 | outcome
1 | CCN(CC)C(=O)c1cc(S(=O)(=O)Cc2ccccc2)c(N2CCC(c3ccccc3)CC2)cc1N(CC)CCN(C)C | inconclusive: 0.74 µM | 
2 | CC(=O)S[C@@H]1CC2=CC(=O)CC[C@]2(C)[C@H]2CC[C@@]3(C)[C@@H](CC[C@@]34CCC(=O)O4)[C@H]12 |  | inactive
3 | O=C=NCCCCCCN=C=O | inconclusive: 0.0018 µM | 
4 | OC1CCC(C2CCCCC2)CC1 (stereo not given) |  | inactive
5 | CSc1ccc(Oc2ccc(S(N)(=O)=O)cc2CN(C)C)cc1C | inconclusive: 47.1 µM | 
6 | COc1cccc([C@H](O)C2CCN(CCc3ccc(F)cc3)CC2)c1OC | inconclusive: 33.4 µM | 
7 | O=C1CCC(C2CCCCC2)CC1 |  | inactive
8 | CC(=O)N1CCN(c2ccc(OC[C@H]3CO[C@](Cn4ccnc4)(c4ccc(Cl)cc4Cl)O3)cc2)CC1 | inconclusive: 26.9 µM | 
9 | COC(=O)c1c(Cl)c(Cl)c(C(=O)OC)c(Cl)c1Cl | inconclusive: 27.8 µM | 
10 | CCCCC(CC)COC(=O)CCCCC(=O)OCc1ccccc1 (stereo not given) | inconclusive: 34.9 µM | 

Reference: PubChem BioAssay (EPA / NIEHS)
